Results reported in US4263282A, “LH-RH-Peptides as contraceptives” (Hoechst Aktiengesellschaft, priority 1977, dated 1981).
Part of at least one peptide drawing is inferred or uncertain, most often the ends.

Tests used:
Type in all cases: in vivo
[1] = test system: luteinizing and follicle-stimulating hormone; ovulation; assay: Observation in women: plasma LH/FSH level and ovulation
[2] = test system: testosterone level in the plasma; assay: Observation in men: plasma testosterone level by radio-immuno assay; conditions: three men
testosterone level = assay: Observation in animals: testosterone level and testicles in male beagles

**Q.** With `CCNC(=O)[C@@H]1CCCN1C(=O)[C@H](CCCNC(=N)N)NC(=O)[C@H](CC(C)C)NC(=O)[C@@H](COC(C)(C)C)NC(=O)[C@H](Cc1ccc(O)cc1)NC(=O)[C@H](CO)NC(=O)[C@H](Cc1c[nH]c2ccccc12)NC(=O)[C@H](Cc1c[nH]cn1)NC(=O)[C@@H]1CCC(=O)N1` as the compound, how does the “stimulation of the hypophysis” value ([1]; 4 women, 5 mcg 3 times per day s.c. from the beginning of the cycle) read?
**A.** Its value is “no longer occured”.

**Q.** And the “plasma level of luteinizing and follicle-stimulating hormone” value ([1]; 4 women, 5 mcg 3 times per day s.c. from the beginning of the cycle, a few days after the treatment)?
**A.** The value was “dropped to basal values”.

**Q.** What about the “ovulation, long term treatment” value ([1]; women, 5 mcg 3 times per day s.c., long term treatment) of the same compound?
**A.** Its value is “suppressed completely”.

**Q.** What about the “ovulation, short term treatment” value ([1]; women, 5 mcg 3 times per day s.c., short term treatment) of the same compound?
**A.** The value was “deferred”.

**Q.** And the “testosterone level in the plasma, fraction of the initial value” ([2]; 50 mcg per day s.c. in aqueous preparation for 10 days)?
**A.** The value was “about one third”.

**Q.** And the “testosterone level 6 weeks after the end of the treatment” value ([2]; after 50 mcg per day s.c. for 10 days, recovery)?
**A.** The value was “initial values had been reached again”.

**Q.** And the “testosterone level, % of the initial value, after 3 months” value (testosterone level; 2.5 mcg/kg s.c. once daily, after 3 months)?
**A.** The value was 6%.

**Q.** What about the “testosterone level, % of the initial value, after one month” value (testosterone level; 2.5 mcg/kg s.c. once daily, after one month) of the same compound?
**A.** The value was 30%.

**Q.** What about the “testicles during the course of the treatment” value (testosterone level; 2.5 mcg/kg s.c. once daily, treatment for 6 months) of the same compound?
**A.** The value was “marked atrophy of the testicles”.

**Q.** What about the “libido 8 weeks after the discontinuation of the treatment” value (testosterone level; 8 weeks after 6 months of 2.5 mcg/kg s.c. daily) of the same compound?
**A.** Its value is “normal libido”.
